The numbers were not newly measured in US20030104507A1, “Method for detection of ATP” (priority 2001, published 2003), which cites them from elsewhere.

Chains of the proteins cited; added tags and fusions are not shown.
UniProt P08659, whole entry: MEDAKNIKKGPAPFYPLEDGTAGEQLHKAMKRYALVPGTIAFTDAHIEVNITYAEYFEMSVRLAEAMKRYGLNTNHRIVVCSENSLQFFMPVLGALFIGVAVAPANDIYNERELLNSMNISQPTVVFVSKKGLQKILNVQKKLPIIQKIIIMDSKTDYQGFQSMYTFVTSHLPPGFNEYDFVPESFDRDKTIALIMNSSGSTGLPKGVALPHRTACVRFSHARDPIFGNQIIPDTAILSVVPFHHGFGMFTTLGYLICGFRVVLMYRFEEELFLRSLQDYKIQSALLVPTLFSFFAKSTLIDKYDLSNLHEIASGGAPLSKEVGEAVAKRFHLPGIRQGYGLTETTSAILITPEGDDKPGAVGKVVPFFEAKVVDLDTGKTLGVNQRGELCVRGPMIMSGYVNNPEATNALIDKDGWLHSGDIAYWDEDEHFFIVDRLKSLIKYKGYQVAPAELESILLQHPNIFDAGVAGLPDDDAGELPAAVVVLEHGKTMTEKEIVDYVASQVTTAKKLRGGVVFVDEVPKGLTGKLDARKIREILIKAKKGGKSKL

For this data set, the target named is native firefly luciferase (Photinus pyralis, UniProt P08659). As to conditions: cited from earlier work.

Consider `CC(C)(C)CC(C)(C)c1ccc(OCCOCC[N+](C)(C)Cc2ccccc2)cc1` [benzethonium chloride], for which the “effect on native firefly luciferase” value is given as “inactivated”.
